According to PubChem BioAssay AID180 (DTP/NCI, 2004):
The list does not hold the whole screen: it is rich in T/C values a quarter to a half above the control, in often repeated tests (any T/C) and in doses without a T/C. Further doses and runs are listed elsewhere. T/C is the treated group as % of the vehicle group. Schedule codes are those of the source, taken here to give the interval after Q, in days (D) or hours (H), and the number of doses after X. Some entries give survivors of the animals treated and no T/C: the source files T/C as zero there, which appears to mark a toxic dose or a test without result, not a measured value. Counts of survivors are from the toxicity check (mostly the fifth day) where no day follows; animals may have died later.

System: BDF1 mice, Adenocarcinoma 755 s.c., tumor weight T/C
Assay: NCI In Vivo Anticancer Drug Screen. Data for tumor model Adenocarcinoma 755 (subcutaneous) in B6D2F1 (BDF1) mice
Conditions: T/C endpoint: mean tumor weight, higher T/C = larger tumour; for T/C: evaluated on day 12
In short: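 Values express treated (T) relative to vehicle-dosed control (C) animals, based on survival or tumour size measured after compound treatment of mice bearing a transplanted tumour.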

[1] = dose: 113.0 mg/kg/injection, schedule: Q01DX011 (ip), vehicle: methylcellulose (MC)
[2] = dose: 250.0 mg/kg/injection, schedule: Q01DX011 (ip), vehicle: methylcellulose (MC)
[3] = dose: 120.0 mg/kg/injection, schedule: Q01DX011 (ip), vehicle: carboxymethylcellulose (CMC)
[4] = dose: 60.0 mg/kg/injection, schedule: Q01DX011 (ip), vehicle: carboxymethylcellulose (CMC)

CCC(c1ccc(O)cc1)C(CC)c1ccc(OC)cc1 (stereo not drawn)
survivor count (dose: 40.0 mg/kg/injection, schedule: Q01DX011 (sc), vehicle: steroid suspending solution): 6 of 10
survivor count (dose: 80.0 mg/kg/injection, schedule: Q01DX011 (sc), vehicle: steroid suspending solution): 3 of 10
survivor count (dose: 160.0 mg/kg/injection, schedule: Q01DX011 (sc), vehicle: steroid suspending solution): 3 of 10
survivor count (dose: 320.0 mg/kg/injection, schedule: Q01DX011 (sc), vehicle: steroid suspending solution): 1 of 10

CS(=O)(=O)OCCC(=O)N1CCN(C(=O)CCOS(C)(=O)=O)CC1
survivor count (dose: 18.75 mg/kg/injection, schedule: Q01DX011 (ip), vehicle: methylcellulose (MC)): 6 of 10
survivor count (dose: 50.0 mg/kg/injection, schedule: Q01DX011 (ip), vehicle: methylcellulose (MC)): 4 of 10
survivor count (dose: 75.0 mg/kg/injection, schedule: Q01DX011 (ip), vehicle: methylcellulose (MC)): 2 of 10
survivor count (dose: 76.0 mg/kg/injection, schedule: Q01DX011 (ip), vehicle: methylcellulose (MC)): 4 of 10
survivor count [1]: 3 of 10
survivor count (dose: 170.0 mg/kg/injection, schedule: Q01DX011 (ip), vehicle: methylcellulose (MC)): 2 of 10
survivor count (dose: 176.0 mg/kg/injection, schedule: Q01DX011 (ip), vehicle: methylcellulose (MC)): 2 of 10

CC(=O)[C@H]1[C@H](C)C[C@H]2[C@@H]3CCC4=CC(=O)CC[C@]4(C)[C@@]3(F)[C@@H](O)C[C@@]21C
survivor count (dose: 700.0 mg/kg/injection, schedule: Q01DX011 (sc), vehicle: steroid suspending solution): 2 of 10

Cc1cnc(SCc2ccc(Cl)cc2Cl)nc1N(C)C
survivor count (dose: 15.0 mg/kg/injection, schedule: Q01DX011 (ip), vehicle: methylcellulose (MC)): 6 of 10
survivor count (dose: 31.0 mg/kg/injection, schedule: Q01DX011 (ip), vehicle: methylcellulose (MC)): 6 of 10
survivor count (dose: 125.0 mg/kg/injection, schedule: Q01DX011 (ip), vehicle: methylcellulose (MC)): 6 of 10
survivor count [2]: 5 of 10

CC(CBr)C(=O)N1CCN(C(=O)C(C)CBr)CC1 (stereo not drawn)
T/C (dose: 28.0 mg/kg/injection, schedule: Q01DX011 (ip), vehicle: methylcellulose (MC)): 127 % of control
T/C (dose: 57.0 mg/kg/injection, schedule: Q01DX011 (ip), vehicle: methylcellulose (MC)): 126 % of control
T/C [1]: 133 % of control
T/C (dose: 225.0 mg/kg/injection, schedule: Q01DX011 (ip), vehicle: methylcellulose (MC)): 134 % of control

C[C@@H]1CN(C(=O)CCOS(C)(=O)=O)[C@@H](C)CN1C(=O)CCOS(C)(=O)=O
survivor count [3]: 5 of 10
survivor count (dose: 480.0 mg/kg/injection, schedule: Q01DX011 (ip), vehicle: carboxymethylcellulose (CMC)): 0 of 10

Cc1cc(=O)c2c(C)cccc2[nH]1
survivor count [3]: 6 of 10
survivor count (dose: 160.0 mg/kg/injection, schedule: Q01DX011 (ip), vehicle: carboxymethylcellulose (CMC)): 6 of 10
survivor count (dose: 640.0 mg/kg/injection, schedule: Q01DX011 (ip), vehicle: carboxymethylcellulose (CMC)): 1 of 10

CCCN1CCC(=O)NC1=S
survivor count [2]: 6 of 10

CCCCCN(CCCCC)CC(O)c1ccc(Cl)c2ccccc12 (stereo not drawn)
survivor count [4]: 5 of 10
survivor count [3]: 4 of 10
survivor count (dose: 240.0 mg/kg/injection, schedule: Q01DX011 (ip), vehicle: carboxymethylcellulose (CMC)): 5 of 10

CCOc1ccccc1C(=O)Nc1ccc(Br)cc1
survivor count (dose: 600.0 mg/kg/injection, schedule: Q01DX011 (ip), vehicle: carboxymethylcellulose (CMC)): 6 of 12

Nc1ncnc2c1ncn2C(C=O)OC(C=O)CO (stereo not drawn)
survivor count (dose: 30.0 mg/kg/injection, schedule: Q01DX011 (ip), vehicle: carboxymethylcellulose (CMC)): 6 of 10
survivor count [4]: 0 of 10
survivor count [3]: 0 of 10
